# Test results: patent publication EP1406920B1, “NOVEL CHROMOGENIC SUBSTANCES AND USE THEREOF FOR THE DETERMINATION OF CARBOXYPEPTIDASE ACTIVITIES” (Diagnostica Stago, priority 2001, dated 2003)
# System: carboxypeptidase B pancréatique porcine
# Experiment: Decoloration of single-amino-acid substrate AAFR by pancreatic carboxypeptidase B
# Assay type: biochemical
# Conditions: CPB porcine 5,2 mol/l in hépès buffer; AAFR 5 mM (0,25 mM); 382 nm
# From the text: L'exemple ci-après vise à démontrer la nécessité d'utiliser la méthode et les composés de formule (I) de l'invention pour doser spécifiquement l'activité des CPN ou U, en particulier le TAFI, par rapport à d'autres carboxypeptidases basiques. 1. Le dosage est dans ce cas réalisé avec un substrat de la famille de composés décrites par Mock dans (14). Ce substrat est constitué d'un seul acide aminé porteur du radical chromophore anizylazoformyl (portion CH3OC6H4-N = N-CO-). L'acide aminé choisi est l'arginine, un acide aminé basique normalement hydrolysé par les carboxypeptidases B (1). Ce substrat est dénommé ci-après AAFR (AnizylAzoFormyArginine) ou MxAFR (4-MethoxyphenylAzoformylarginine). Ce substrat (0,25 mM) est mis en présence soit d'un échantillon de TAFI plasmatique, soit d'une solution de carboxypeptidase B pancréatique porcine (Sigma - Réf. C9584) à 5,2 mol/l. La diminution de coloration de chacun des deux échantillons est suivie au spectrophotomètre. Chacun des échantillons est traité selon le protocole suivant : • a) échantillon de départ : • TAFI plasmatique (présent dans un pool normal de plasmas - dilué au 1/20) ou • Carboxypeptidase B pancréatique porcine 5,2 mol/l (dans tampon hépès) • b) activation avec complexe thrombine-thrombomoduline-CaCl2 (voir exemple 2) pour l'échantillon de TAFI plasmatique. • c) addition de AAFR à 5 mM. • d) lecture DO à 382 nm.
smiles,measurement,value
"COc1ccc(N=NC(=O)N[C@@H](CCCNC(=N)N)C(=O)O)cc1 [AAFR, 4-MethoxyphenylAzoformylarginine]",DO de départ,1.054
same,DO finale,0.445
